This is one part of the list.
Key:
Experiment in all cases: log2 fold change, soluble protein after heating vs DMSO (PISA); higher = thermal stabilisation; K562 lysate, 10 uM; active = over 0.2 and 3.5 SD of the protein, either way, in both replicates (recomputed)
lapatinib = compound: CS(=O)(=O)CCNCc1ccc(-c2ccc3ncnc(Nc4ccc(OCc5cccc(F)c5)c(Cl)c4)c3c2)o1 [lapatinib]
Procedure, shortened: (§1)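 Dounce homogenisation of K562 pellets in PBS pH 7.4 with 1 mM MgCl2 produced a crude extract, used at 1 mg/mL protein. Exposure to 10 μM compound lasted 30 min, and aliquots were then heated for 3 min across 48°C-58°C, pooled and brought to 0.5% NP-40 at 4°C. The supernatant after 21,000xg for 90 min was quantified by TMTpro 16plex LC-MS/MS with channel sums equalised. Duplicate values are given as log-two fold change in thermal stability relative to solvent controls.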

Amino acid sequences for entries named in this document (tags omitted). A change or cut given only in a name is not applied to a line headed by its entry.
UniProt Q86V48: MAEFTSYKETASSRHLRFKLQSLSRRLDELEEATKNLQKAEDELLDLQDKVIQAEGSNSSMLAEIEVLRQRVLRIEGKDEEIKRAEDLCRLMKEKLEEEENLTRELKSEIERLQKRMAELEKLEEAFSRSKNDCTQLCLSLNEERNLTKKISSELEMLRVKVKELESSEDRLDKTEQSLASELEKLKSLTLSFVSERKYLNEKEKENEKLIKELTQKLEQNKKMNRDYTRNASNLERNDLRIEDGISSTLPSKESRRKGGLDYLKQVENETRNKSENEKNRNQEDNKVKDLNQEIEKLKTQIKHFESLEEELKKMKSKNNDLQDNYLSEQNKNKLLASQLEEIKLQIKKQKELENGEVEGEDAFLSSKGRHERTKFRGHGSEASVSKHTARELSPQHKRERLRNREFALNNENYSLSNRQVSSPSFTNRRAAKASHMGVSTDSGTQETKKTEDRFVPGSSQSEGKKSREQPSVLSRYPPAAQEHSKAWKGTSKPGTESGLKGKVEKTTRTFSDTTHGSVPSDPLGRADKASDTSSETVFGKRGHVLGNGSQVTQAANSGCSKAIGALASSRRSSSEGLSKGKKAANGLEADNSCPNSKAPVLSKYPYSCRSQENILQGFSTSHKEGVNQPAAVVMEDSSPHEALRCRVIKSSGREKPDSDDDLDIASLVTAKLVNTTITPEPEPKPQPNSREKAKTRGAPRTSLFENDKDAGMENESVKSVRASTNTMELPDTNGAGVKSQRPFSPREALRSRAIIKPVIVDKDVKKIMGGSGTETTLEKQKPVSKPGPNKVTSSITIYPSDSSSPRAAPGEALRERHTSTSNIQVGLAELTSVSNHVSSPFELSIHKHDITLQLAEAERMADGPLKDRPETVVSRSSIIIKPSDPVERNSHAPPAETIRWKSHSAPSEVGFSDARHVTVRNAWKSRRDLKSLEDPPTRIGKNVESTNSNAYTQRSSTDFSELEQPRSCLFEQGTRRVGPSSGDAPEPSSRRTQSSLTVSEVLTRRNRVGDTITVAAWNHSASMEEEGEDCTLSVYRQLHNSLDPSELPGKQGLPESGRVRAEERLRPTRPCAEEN
UniProt Q9HD34: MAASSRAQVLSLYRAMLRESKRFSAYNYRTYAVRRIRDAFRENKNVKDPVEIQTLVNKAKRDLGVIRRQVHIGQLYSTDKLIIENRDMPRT
UniProt Q9UPY8, whole entry, looked up: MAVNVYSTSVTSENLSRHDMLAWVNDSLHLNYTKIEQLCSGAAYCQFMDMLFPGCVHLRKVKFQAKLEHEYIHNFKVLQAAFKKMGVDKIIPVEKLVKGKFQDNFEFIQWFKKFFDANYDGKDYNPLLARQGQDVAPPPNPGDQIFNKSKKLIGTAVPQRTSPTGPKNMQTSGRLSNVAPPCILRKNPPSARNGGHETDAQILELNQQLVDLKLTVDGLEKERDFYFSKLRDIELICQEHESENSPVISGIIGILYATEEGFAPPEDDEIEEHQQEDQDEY
UniProt Q8IW41: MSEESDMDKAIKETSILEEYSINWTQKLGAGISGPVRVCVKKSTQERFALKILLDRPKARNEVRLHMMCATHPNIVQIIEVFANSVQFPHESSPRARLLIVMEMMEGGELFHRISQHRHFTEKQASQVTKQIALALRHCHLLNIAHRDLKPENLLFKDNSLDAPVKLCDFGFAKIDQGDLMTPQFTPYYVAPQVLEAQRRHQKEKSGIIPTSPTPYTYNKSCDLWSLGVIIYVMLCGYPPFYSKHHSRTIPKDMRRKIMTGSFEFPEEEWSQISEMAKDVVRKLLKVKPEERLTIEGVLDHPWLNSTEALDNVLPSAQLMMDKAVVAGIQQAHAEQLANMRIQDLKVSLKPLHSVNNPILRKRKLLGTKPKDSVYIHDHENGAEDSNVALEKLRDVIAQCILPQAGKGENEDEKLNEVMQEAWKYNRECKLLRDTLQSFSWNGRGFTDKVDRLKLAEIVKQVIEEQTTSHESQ
UniProt P31153, whole entry, looked up: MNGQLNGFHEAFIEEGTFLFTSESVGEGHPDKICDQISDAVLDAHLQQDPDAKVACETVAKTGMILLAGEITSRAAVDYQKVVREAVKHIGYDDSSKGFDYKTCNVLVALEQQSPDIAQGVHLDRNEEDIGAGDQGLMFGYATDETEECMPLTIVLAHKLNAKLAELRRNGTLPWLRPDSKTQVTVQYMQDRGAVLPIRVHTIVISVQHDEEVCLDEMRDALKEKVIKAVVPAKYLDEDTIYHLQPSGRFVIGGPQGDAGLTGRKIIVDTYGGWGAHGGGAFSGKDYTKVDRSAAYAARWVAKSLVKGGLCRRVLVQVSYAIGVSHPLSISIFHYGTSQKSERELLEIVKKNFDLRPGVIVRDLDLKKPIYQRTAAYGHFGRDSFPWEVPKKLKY
UniProt P46734: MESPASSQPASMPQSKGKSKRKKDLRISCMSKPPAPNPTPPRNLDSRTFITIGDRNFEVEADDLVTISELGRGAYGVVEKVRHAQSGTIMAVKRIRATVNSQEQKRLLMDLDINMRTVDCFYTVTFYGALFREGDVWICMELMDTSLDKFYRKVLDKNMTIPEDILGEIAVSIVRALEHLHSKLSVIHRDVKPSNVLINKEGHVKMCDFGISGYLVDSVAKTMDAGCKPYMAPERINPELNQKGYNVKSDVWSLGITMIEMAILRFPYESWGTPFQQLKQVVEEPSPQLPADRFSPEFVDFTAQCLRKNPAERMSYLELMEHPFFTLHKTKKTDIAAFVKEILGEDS
UniProt Q9UBF1: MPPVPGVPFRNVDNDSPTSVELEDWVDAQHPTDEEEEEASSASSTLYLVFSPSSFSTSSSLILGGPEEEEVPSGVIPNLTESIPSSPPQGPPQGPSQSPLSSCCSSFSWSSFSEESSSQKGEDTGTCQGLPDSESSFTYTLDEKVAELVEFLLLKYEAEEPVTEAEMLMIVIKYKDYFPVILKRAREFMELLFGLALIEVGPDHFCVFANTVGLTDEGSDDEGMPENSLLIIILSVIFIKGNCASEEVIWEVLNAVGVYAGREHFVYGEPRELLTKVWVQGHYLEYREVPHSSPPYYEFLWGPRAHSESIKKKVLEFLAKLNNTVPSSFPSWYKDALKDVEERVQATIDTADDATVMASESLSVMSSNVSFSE
UniProt Q9Y383: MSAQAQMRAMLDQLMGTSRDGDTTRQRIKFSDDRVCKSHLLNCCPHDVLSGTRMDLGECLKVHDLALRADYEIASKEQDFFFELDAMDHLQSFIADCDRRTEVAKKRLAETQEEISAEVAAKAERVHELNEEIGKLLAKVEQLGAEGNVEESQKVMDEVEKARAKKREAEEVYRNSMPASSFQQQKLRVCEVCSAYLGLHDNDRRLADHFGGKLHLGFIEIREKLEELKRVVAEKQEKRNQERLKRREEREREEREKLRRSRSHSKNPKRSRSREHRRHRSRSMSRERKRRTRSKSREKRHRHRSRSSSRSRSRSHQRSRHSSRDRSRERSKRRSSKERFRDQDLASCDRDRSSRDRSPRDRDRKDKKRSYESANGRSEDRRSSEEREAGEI
UniProt P07948: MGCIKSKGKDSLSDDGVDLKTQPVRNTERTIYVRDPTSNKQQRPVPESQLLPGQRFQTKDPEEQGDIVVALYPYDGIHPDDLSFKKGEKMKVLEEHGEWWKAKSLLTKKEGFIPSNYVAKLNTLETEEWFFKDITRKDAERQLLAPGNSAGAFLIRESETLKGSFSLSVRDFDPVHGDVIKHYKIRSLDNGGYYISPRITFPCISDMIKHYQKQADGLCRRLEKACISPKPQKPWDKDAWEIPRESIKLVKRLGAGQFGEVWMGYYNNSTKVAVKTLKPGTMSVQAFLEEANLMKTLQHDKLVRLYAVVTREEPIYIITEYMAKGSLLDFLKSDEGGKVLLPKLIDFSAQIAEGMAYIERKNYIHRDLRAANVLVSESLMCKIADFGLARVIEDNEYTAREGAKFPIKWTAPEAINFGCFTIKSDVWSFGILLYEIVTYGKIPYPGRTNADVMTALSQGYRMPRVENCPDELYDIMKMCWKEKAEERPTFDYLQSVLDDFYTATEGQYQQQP
UniProt Q8IWC1: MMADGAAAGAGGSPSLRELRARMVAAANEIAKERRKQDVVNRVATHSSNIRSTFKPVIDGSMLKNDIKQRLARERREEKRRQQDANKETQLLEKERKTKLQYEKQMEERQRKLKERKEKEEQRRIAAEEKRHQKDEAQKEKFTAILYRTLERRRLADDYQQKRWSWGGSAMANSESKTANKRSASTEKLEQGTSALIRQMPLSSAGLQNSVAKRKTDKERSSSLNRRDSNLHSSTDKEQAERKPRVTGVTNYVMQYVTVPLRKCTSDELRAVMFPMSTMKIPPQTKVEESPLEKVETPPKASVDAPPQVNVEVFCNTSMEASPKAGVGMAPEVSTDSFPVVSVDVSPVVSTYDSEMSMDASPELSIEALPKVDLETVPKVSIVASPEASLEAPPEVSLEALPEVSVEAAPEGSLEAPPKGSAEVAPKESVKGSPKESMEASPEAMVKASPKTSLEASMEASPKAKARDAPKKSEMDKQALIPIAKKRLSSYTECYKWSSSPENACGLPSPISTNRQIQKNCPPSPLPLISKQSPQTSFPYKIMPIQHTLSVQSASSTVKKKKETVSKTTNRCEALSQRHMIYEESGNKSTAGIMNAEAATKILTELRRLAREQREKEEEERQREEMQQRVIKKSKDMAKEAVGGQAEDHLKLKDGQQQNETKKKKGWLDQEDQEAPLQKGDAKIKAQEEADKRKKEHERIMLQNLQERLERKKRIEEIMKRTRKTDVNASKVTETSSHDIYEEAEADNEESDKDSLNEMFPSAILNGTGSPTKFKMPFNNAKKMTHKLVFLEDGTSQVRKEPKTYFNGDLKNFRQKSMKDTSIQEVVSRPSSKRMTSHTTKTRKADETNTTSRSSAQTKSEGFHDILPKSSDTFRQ
UniProt Q9Y6R4: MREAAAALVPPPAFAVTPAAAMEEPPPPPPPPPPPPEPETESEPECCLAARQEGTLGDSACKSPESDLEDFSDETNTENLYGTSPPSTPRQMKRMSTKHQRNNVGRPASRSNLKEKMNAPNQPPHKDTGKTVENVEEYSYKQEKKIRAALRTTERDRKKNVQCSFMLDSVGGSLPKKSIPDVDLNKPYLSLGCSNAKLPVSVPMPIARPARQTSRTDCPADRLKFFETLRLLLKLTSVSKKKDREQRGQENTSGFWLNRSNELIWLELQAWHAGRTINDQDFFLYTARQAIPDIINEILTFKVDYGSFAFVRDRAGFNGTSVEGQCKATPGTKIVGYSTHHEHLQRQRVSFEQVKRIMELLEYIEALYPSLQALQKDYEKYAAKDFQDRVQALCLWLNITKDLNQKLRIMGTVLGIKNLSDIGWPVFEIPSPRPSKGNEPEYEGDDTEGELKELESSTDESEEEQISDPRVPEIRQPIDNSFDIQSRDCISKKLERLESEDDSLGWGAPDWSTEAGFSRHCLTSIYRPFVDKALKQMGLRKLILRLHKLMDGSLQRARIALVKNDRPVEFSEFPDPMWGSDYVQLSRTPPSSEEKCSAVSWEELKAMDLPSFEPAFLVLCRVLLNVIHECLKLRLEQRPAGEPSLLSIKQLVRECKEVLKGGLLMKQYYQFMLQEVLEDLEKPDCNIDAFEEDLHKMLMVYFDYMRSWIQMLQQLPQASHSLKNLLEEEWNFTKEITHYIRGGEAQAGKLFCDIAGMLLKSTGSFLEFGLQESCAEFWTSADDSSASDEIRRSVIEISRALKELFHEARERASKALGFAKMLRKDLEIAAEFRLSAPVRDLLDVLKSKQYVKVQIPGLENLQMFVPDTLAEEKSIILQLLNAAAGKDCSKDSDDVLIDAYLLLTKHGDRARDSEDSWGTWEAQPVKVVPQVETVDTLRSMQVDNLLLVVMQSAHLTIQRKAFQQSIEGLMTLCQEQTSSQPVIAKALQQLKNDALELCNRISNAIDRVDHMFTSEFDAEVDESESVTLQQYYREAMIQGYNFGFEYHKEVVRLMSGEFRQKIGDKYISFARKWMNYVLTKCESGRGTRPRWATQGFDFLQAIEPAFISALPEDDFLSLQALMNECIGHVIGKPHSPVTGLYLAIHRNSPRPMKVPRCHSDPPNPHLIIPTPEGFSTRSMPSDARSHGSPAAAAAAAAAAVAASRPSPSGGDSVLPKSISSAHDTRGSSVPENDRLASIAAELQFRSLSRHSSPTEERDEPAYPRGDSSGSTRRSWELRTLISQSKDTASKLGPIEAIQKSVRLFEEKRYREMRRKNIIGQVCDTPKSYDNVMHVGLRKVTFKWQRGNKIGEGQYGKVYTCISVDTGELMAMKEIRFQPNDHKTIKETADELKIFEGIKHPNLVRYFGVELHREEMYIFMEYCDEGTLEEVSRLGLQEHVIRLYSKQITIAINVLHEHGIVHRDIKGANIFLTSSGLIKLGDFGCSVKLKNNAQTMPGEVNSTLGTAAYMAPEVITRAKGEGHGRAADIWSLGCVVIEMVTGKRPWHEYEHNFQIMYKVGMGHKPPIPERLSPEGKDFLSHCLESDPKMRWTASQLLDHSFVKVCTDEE

pictilisib = compound: CS(=O)(=O)N1CCN(Cc2cc3nc(-c4cccc5[nH]ncc45)nc(N4CCOCC4)c3s2)CC1 [pictilisib]
Procedure, shortened: as §1

crizotinib = compound: C[C@@H](Oc1cc(-c2cnn(C3CCNCC3)c2)cnc1N)c1c(Cl)ccc(F)c1Cl [crizotinib]
Procedure, shortened: as §1

[1] = compound: C[C@H](C1=CC=C(C=C1)C(=O)NC2=C3C=CNC3=NC=C2)N
Procedure, shortened: as §1

duvelisib = compound: C[C@H](Nc1ncnc2nc[nH]c12)c1cc2cccc(Cl)c2c(=O)n1-c1ccccc1 [duvelisib]
Procedure, shortened: as §1

gandotinib = compound: Cc1cc(Nc2cc(CN3CCOCC3)c3nc(C)c(Cc4ccc(Cl)cc4F)n3n2)n[nH]1 [gandotinib]
Procedure, shortened: as §1

tozasertib = compound: Cc1cc(Nc2cc(N3CCN(C)CC3)nc(Sc3ccc(NC(=O)C4CC4)cc3)n2)n[nH]1 [tozasertib]
Procedure, shortened: as §1

doramapimod = compound: Cc1ccc(-n2nc(C(C)(C)C)cc2NC(=O)Nc2ccc(OCCN3CCOCC3)c3ccccc23)cc1 [doramapimod]
Procedure, shortened: as §1

bafetinib = compound: Cc1ccc(NC(=O)c2ccc(CN3CC[C@H](N(C)C)C3)c(C(F)(F)F)c2)cc1Nc1nccc(-c2cncnc2)n1 [bafetinib]
Procedure, shortened: as §1

[2] = compound: Cc1cccc(CC(=O)N2CCc3c2ccc(-c2cn(C)c4ncnc(N)c24)c3F)n1
Procedure, shortened: as §1

nilotinib = compound: Cc1cn(-c2cc(NC(=O)c3ccc(C)c(Nc4nccc(-c5cccnc5)n4)c3)cc(C(F)(F)F)c2)cn1 [nilotinib]
Procedure, shortened: as §1

[3] = compound: Cc1nc(Nc2n[nH]c3c2CN(C(=O)N[C@H](CN(C)C)c2ccccc2)C3(C)C)c2sccc2n1
Procedure, shortened: as §1

dasatinib = compound: Cc1nc(Nc2ncc(C(=O)Nc3c(C)cccc3Cl)s2)cc(N2CCN(CCO)CC2)n1 [dasatinib]
Procedure, shortened: as §1

[4] = compound: Cc1ncc(-c2ccnc(Nc3ccc(S(C)(=O)=O)cc3)n2)n1C(C)C
Procedure, shortened: as §1

[5] = compound: Cn1cc(-c2ccc3c(c2)CCN3C(=O)Cc2cccc(C(F)(F)F)c2)c2c(N)ncnc21
Procedure, shortened: as §1

quisinostat = compound: Cn1cc(CNCC2CCN(c3ncc(C(=O)NO)cn3)CC2)c2ccccc21 [quisinostat]
Procedure, shortened: as §1

tipifarnib = compound: Cn1cncc1[C@@](N)(c1ccc(Cl)cc1)c1ccc2c(c1)c(-c1cccc(Cl)c1)cc(=O)n2C [tipifarnib]
Procedure, shortened: as §1

[6] = compound: NC(=O)Nc1cc(-c2cccc(F)c2)sc1C(=O)N[C@H]1CCCNC1
Procedure, shortened: as §1

[7] = compound: NC(=O)c1cnc(N[C@@H]2CCCC[C@@H]2N)nc1Nc1cccc(-n2nccn2)c1
Procedure, shortened: as §1

[8] = compound: NC1(c2ccc(-c3nc4ccn5c(=O)[nH]nc5c4cc3-c3ccccc3)cc2)CCC1
Procedure, shortened: as §1

Measured: log2 fold change

LUZP1 (UniProt Q86V48)
inactive: lapatinib -0.006 | pictilisib -0.02 | crizotinib -0.012 | [1] 0.008 | duvelisib -0.026 | gandotinib 0.036 | tozasertib -0.011 | doramapimod -0.009 | bafetinib -0.034 | [2] -0.011 | nilotinib 0.013 | [3] -0.046 | dasatinib -0.004 | [4] -0.02 | [5] 0.062 | quisinostat -0.03 | tipifarnib -0.005 | [6] 0.109 | [7] 0.01 | [8] 0.027

LYRM4 (UniProt Q9HD34)
inactive: lapatinib -0.036 | pictilisib -0.026 | crizotinib -0.034 | duvelisib 0.031 | gandotinib -0.095 | tozasertib -0.021 | doramapimod -0.047 | bafetinib 0.008 | [2] -0.007 | nilotinib 0.009 | [3] -0.031 | dasatinib -0.061 | [4] 0.052 | [5] -0.028 | quisinostat -0.093 | tipifarnib -0.028 | [6] 0.054 | [7] -0.036 | [8] -0.005
active: [1] 0.413

MAPRE3 (UniProt Q9UPY8)
inactive: lapatinib 0.008 | pictilisib -0.007 | crizotinib 0.096 | [1] 0.159 | duvelisib -0.006 | gandotinib -0.212 | tozasertib 0.029 | doramapimod 0.013 | bafetinib 0.057 | [2] -0.15 | nilotinib 0.022 | [3] -0.013 | dasatinib 0.088 | [4] -0.053 | [5] 0.054 | quisinostat 0.146 | tipifarnib 0.014 | [6] -0.03 | [7] 0.006 | [8] 0.009

MAPKAPK5 (UniProt Q8IW41)
active: [6] 0.519
inactive: lapatinib 0.05 | pictilisib -0.008 | crizotinib -0.085 | [1] 0.111 | duvelisib 0.04 | gandotinib -0.07 | tozasertib -0.004 | doramapimod 0.015 | bafetinib 0.019 | [2] -0.053 | nilotinib -0.003 | [3] 0.056 | dasatinib 0.011 | [4] 0.064 | [5] 0.024 | quisinostat -0.222 | tipifarnib -0.065 | [7] -0.006 | [8] -0.006

MAT2A (UniProt P31153)
inactive: lapatinib -0.021 | pictilisib 0.008 | crizotinib -0.017 | [1] 0.001 | duvelisib 0.024 | gandotinib -0.032 | tozasertib 0.025 | doramapimod 0.049 | bafetinib 0.05 | [2] 0.008 | nilotinib -0.022 | [3] 0.005 | dasatinib 0.021 | [4] -0.007 | [5] 0.015 | quisinostat -0.011 | tipifarnib 0.01 | [6] -0.002 | [7] 0 | [8] 0.023

MAP2K3 isoform 3 (UniProt P46734)
inactive: lapatinib -0.014 | pictilisib -0.102 | crizotinib -0.043 | [1] -0.021 | duvelisib 0.124 | gandotinib 0.038 | tozasertib 0.017 | doramapimod -0.047 | bafetinib -0.012 | [2] -0.035 | nilotinib -0.001 | [3] -0.004 | dasatinib -0.021 | [4] 0.021 | [5] 0.059 | quisinostat -0.055 | tipifarnib -0.093 | [6] 0.034 | [7] -0.03 | [8] 0.131

MAN1B1 (UniProt Q9UKM7)
inactive: lapatinib -0.023 | pictilisib -0.006 | crizotinib -0.05 | [1] -0.121 | duvelisib -0.06 | gandotinib 0.03 | tozasertib -0.048 | doramapimod -0.03 | bafetinib 0.008 | [2] 0.091 | nilotinib 0.014 | [3] -0.009 | dasatinib 0.013 | [4] -0.046 | [5] 0.067 | quisinostat 0.007 | tipifarnib -0.1 | [6] 0.03 | [7] -0.007 | [8] -0.009

MAGEC2 (UniProt Q9UBF1)
inactive: lapatinib -0.008 | pictilisib -0.011 | crizotinib -0.11 | [1] -0.154 | duvelisib 0.035 | gandotinib 0.017 | tozasertib 0.009 | doramapimod 0.014 | bafetinib -0.047 | [2] 0.01 | nilotinib 0.004 | [3] -0.026 | dasatinib 0.034 | [4] -0.02 | [5] 0.008 | quisinostat -0.227 | tipifarnib 0.007 | [6] 0.008 | [7] 0.008 | [8] -0.068

MAN2C1 isoform 4 (UniProt Q9NTJ4)
inactive: lapatinib 0.047 | pictilisib -0.04 | crizotinib -0.005 | [1] -0.029 | duvelisib 0.031 | gandotinib 0.024 | tozasertib -0.028 | doramapimod -0.007 | bafetinib 0.031 | [2] 0.01 | nilotinib -0.097 | [3] 0.074 | dasatinib -0.008 | [4] -0.061 | [5] -0.033 | quisinostat -0.002 | tipifarnib -0.071 | [6] 0 | [7] -0.004 | [8] -0.029

MAGEC1 (UniProt O60732)
inactive: lapatinib -0.012 | pictilisib -0.022 | crizotinib -0.054 | [1] 0.002 | duvelisib 0.023 | gandotinib -0.026 | tozasertib -0.008 | doramapimod 0 | bafetinib -0.018 | [2] 0.081 | nilotinib 0.02 | [3] 0.023 | dasatinib -0.062 | [4] 0.017 | [5] 0.041 | quisinostat -0.061 | tipifarnib -0.021 | [6] 0.035 | [7] -0.009 | [8] -0.046

LZTFL1 (UniProt Q9NQ48)
inactive: lapatinib -0.004 | pictilisib -0.039 | crizotinib 0.028 | [1] 0.007 | duvelisib 0.013 | gandotinib -0.011 | tozasertib -0.015 | doramapimod -0.01 | bafetinib -0.021 | [2] -0.023 | nilotinib -0.017 | [3] 0.029 | dasatinib -0.013 | [4] -0.006 | [5] 0 | quisinostat 0 | tipifarnib 0.015 | [6] 0.02 | [7] -0.026 | [8] 0.021

Random excerpt: two records from the list.
MAN1B1 (UniProt Q9UKM7)
inactive: lapatinib -0.023 | pictilisib -0.006 | crizotinib -0.05 | [1] -0.121 | duvelisib -0.06 | gandotinib 0.03 | tozasertib -0.048 | doramapimod -0.03 | bafetinib 0.008 | [2] 0.091 | nilotinib 0.014 | [3] -0.009 | dasatinib 0.013 | [4] -0.046 | [5] 0.067 | quisinostat 0.007 | tipifarnib -0.1 | [6] 0.03 | [7] -0.007 | [8] -0.009

LZTFL1 (UniProt Q9NQ48)
inactive: lapatinib -0.004 | pictilisib -0.039 | crizotinib 0.028 | [1] 0.007 | duvelisib 0.013 | gandotinib -0.011 | tozasertib -0.015 | doramapimod -0.01 | bafetinib -0.021 | [2] -0.023 | nilotinib -0.017 | [3] 0.029 | dasatinib -0.013 | [4] -0.006 | [5] 0 | quisinostat 0 | tipifarnib 0.015 | [6] 0.02 | [7] -0.026 | [8] 0.021

Next part.

LZTS1 (UniProt Q9Y250)
active: quisinostat -1.06
inactive: lapatinib -0.136 | pictilisib -0.222 | crizotinib -0.821 | [1] -0.233 | duvelisib 0.308 | gandotinib -0.137 | tozasertib -0.1 | doramapimod 0.177 | bafetinib -0.268 | [2] 0.083 | nilotinib -0.13 | [3] 0.023 | dasatinib 0.056 | [4] 0.167 | [5] -0.266 | tipifarnib 0.087 | [6] 0.186 | [7] -0.02 | [8] -0.297

LUC7L2 (UniProt Q9Y383)
inactive: lapatinib -0.01 | pictilisib 0.02 | crizotinib 0.025 | [1] 0.015 | duvelisib 0.014 | gandotinib -0.142 | tozasertib 0.043 | doramapimod 0.028 | bafetinib -0.008 | [2] -0.008 | nilotinib 0.007 | [3] -0.026 | dasatinib 0.017 | [4] -0.012 | [5] 0.004 | quisinostat 0.028 | tipifarnib 0.036 | [6] -0.112 | [7] -0.009 | [8] 0.062

LYN (UniProt P07948)
inactive: lapatinib -0.184 | pictilisib -0.036 | crizotinib 0.093 | [1] -0.079 | duvelisib -0.042 | gandotinib 0.551 | tozasertib 0.11 | doramapimod 0.026 | [2] -0.005 | nilotinib 0.158 | [3] 0.218 | dasatinib 0.457 | [4] -0.026 | [5] 0.095 | quisinostat -0.125 | tipifarnib -0.154 | [7] 0.084 | [8] -0.037
active: bafetinib 0.763 | [6] 0.842

MAP7D3 (UniProt Q8IWC1)
inactive: lapatinib 0.033 | pictilisib 0.01 | crizotinib -0.006 | [1] -0.055 | duvelisib -0.068 | gandotinib 0.021 | tozasertib 0.066 | doramapimod 0.065 | bafetinib -0.128 | [2] 0.06 | nilotinib -0.012 | [3] -0.01 | dasatinib 0.03 | [4] -0.037 | [5] 0.029 | quisinostat -0.101 | tipifarnib 0.014 | [6] 0.003 | [7] -0.016 | [8] 0.005

MAP3K4 (UniProt Q9Y6R4)
active: dasatinib 0.485
inactive: lapatinib -0.02 | pictilisib 0.009 | crizotinib 0.033 | [1] 0.064 | duvelisib -0.017 | gandotinib 0.034 | tozasertib 0.092 | doramapimod 0.073 | bafetinib -0.031 | [2] -0.041 | nilotinib 0.003 | [3] 0.206 | [4] 0.095 | [5] 0.132 | quisinostat -0.078 | tipifarnib -0.015 | [6] 0.203 | [7] 0.045 | [8] -0.021
